AC50 data for 33 compounds are collected here from PubChem BioAssay AID1487 (National Center for Advancing Translational Sciences (NCATS), 2009).

The list shows a part of the results. These are further read-outs of the screen, such as a control signal, another cell line or another target. No call is given for them. The list favours compounds with an active or inconclusive main result. The note in brackets gives the kind of curve behind each potency; many fits are weak.

This assay in a line: qHTS Assay for Modulators of Lamin A Splicing. The settings on record: HeLa LMNA splicing GFP/RFP minigene ratio, 48 h. Summed up: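 S3 HeLa cells stably expressing lamin A-EGFP splicing minigene plus DsRed2, 600 cells/well, 48 h compound exposure at 37C. Laser-scanning cytometry; analysed as GFP (500-530 nm)/RFP (575-640 nm) total intensity ratio; 0.5% DMSO vehicle.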
Background: In qHTS, concentration-response curves come from the screen itself.

Setting [1] is: measured here: GFP splicing reporter channel.
Where [2] appears, read: measured here: RFP viability control channel.

As for `Cn1c(=O)c(C(=O)CCl)c(N)n(Cc2ccccc2)c1=O`, the AC50 under setting [1] is 4.47 µM [rising, full curve, poor fit] and the AC50 under setting [2] is 11.2 µM [rising, partial curve].
For `COC(=O)C[C@H]1c2ccccc2[C@H]2C(=C[C@@H](C)[C@H]3C(=O)N(O)C(=O)[C@H]32)N1C(=O)OC`, the AC50 under setting [1] is 0.562 µM [rising, full curve, poor fit] and the half-maximal activity concentration (AC50) under setting [2] was 3.16 µM [rising, partial curve, poor fit].
With `Cc1ccc(S(=O)(=O)c2nc(Nc3ccccc3)sc2Cl)cc1`, the concentration at half-maximal activity (AC50) runs as follows: under setting [1], 25.1 µM [rising, single point]; under setting [2], 11.2 µM [rising, single point].
In the case of `O=C(/C=C/c1ccc(Cl)c([N+](=O)[O-])c1)Nc1cccc(NC(=O)c2ccco2)c1`, under setting [2], the AC50 was 35.5 µM [rising, single point].
For `O=C(Nc1ccon1)c1ccc(OC2CCCC2)cc1`, the AC50 under setting [2] is 22.4 µM [rising, single point].
With `Cc1cc(C)cc(OCC(=O)NC2CCCc3ccccc32)c1` (stereo not drawn), under setting [2], the AC50 is 10 µM [rising, partial curve].
Consider `CC(C)c1cnc2c(c1SCC(=O)Nc1ccc(OC(F)(F)F)cc1)c(=O)n(C)c(=O)n2C`, for which the AC50 by setting is: under setting [1], 6.31 µM [rising, single point]; under setting [2], 20 µM [rising, single point].
Take `O=C(CCCN1C(=O)c2cccnc2Oc2ccc(Cl)cc21)NCc1ccccc1F`: the AC50 under setting [2] is 0.355 µM [falling, full curve].
Consider `O=C(O)c1cc(-c2cccs2)nn1-c1cccc(Cl)c1`, for which, under setting [1], the AC50 was 0.0708 µM [rising, single point].
As to `COc1ccc(NS(=O)(=O)c2cc(NC(=O)c3ccc(F)cc3)ccc2OC)cc1`, the half-maximal activity concentration (AC50) under setting [2] was 11.2 µM [rising, single point].
`c1ccc2c(c1)CCN(c1nc3cc4c(cc3s1)OCO4)C2`: the AC50 under setting [2] is 14.1 µM [rising, single point].
Consider `COc1cc(C(=O)Nc2nc3ccc(C)cc3s2)ccc1OCc1c(C)noc1C`, for which the AC50 under setting [2] was 8.91 µM [falling, partial curve, poor fit].
As for `CC(C)NC(=O)c1ccc(-n2c(-c3ccccc3)cc3c2CCCC3)cc1`, under setting [1], the AC50 is 2.51 µM [falling, partial curve].
`O=C(NC(Nc1nc2ccc([N+](=O)[O-])cc2s1)(C(F)(F)F)C(F)(F)F)c1ccccc1Cl`: the AC50 under setting [1] was 1.78 µM [rising, single point] and the AC50 under setting [2] is 2 µM [rising, partial curve].
On to `N#Cc1cccc(-c2nccc(NCc3ccccc3)n2)c1`, for which the AC50 is 17.8 µM [falling, partial curve, poor fit] under setting [1] and 11.2 µM [falling, single point] under setting [2].
For `Cn1c(=O)c2c(SCc3cccc(C(F)(F)F)c3)nc(-c3ccco3)nc2n(C)c1=O`, the AC50 was 1.58 µM [falling, partial curve] under setting [1] and 1.58 µM [falling, partial curve] under setting [2].
Turning to `O=C(CC(NC(=O)c1ccccc1)c1ccccc1)Nc1ccc(F)c(F)c1` (stereo not drawn), the AC50 reads like this: under setting [1], 8.91 µM [falling, partial curve]; under setting [2], 10 µM [falling, partial curve, poor fit].
For the compound `O=c1cc2c(nn1Cc1ccc(Cl)cc1)-c1ccccc1CC2`, under setting [2], the AC50 is 35.5 µM [rising, single point].
In the case of `CS(=O)(=O)N1CCN(c2ncccn2)CC1`, under setting [2], the AC50 is 0.158 µM [falling, full curve, poor fit].
Regarding `Cc1ccc(-c2ccnc(=S)[nH]2)cc1`, the AC50 was 28.2 µM [falling, single point] under setting [1] and 35.5 µM [falling, single point] under setting [2].
With `O=C1C(NS(=O)(=O)c2cccs2)=C(N2CCN(c3cccc(Cl)c3)CC2)C(=O)c2ccccc21`, the AC50 under setting [2] is 28.2 µM [rising, single point].
With `COc1ccc(OC)c2sc(N3CCN(C(=O)c4ccc5c(c4)CCCC5)CC3)nc12`, the concentration at half-maximal activity (AC50) under setting [2] was 35.5 µM [rising, single point].
On to `Cc1ccc(-c2c3c(=O)n(C)c(=O)n(C)c3cn2Cc2cccnc2)cc1`, for which, under setting [2], the AC50 was 0.00447 µM [falling, full curve, poor fit].
Take `O=[N+]([O-])c1cc2c(c(CSc3nnc(Nc4ccccc4)s3)c1)OCOC2`: under setting [1], the AC50 was 6.31 µM [falling, single point].
As for `c1ccc(N2CCN(Cc3cccn3-c3nnc(N4CCN(C5CCCCC5)CC4)s3)CC2)cc1`, the AC50 under setting [1] is 0.0282 µM [rising, full curve, poor fit] and the AC50 under setting [2] is 0.0447 µM [rising, full curve, poor fit].
Turning to `Cc1sc(NC(=O)c2ccco2)c(C(c2cccnc2)N2CCC(C)CC2)c1C` (stereo not drawn), the concentration at half-maximal activity (AC50) is, setting by setting: under setting [1], 1 µM [rising, full curve, poor fit]; under setting [2], 0.631 µM [rising, full curve].
Regarding `COc1ccc(/C=C\C(=O)CC(O)(c2ccccc2)C(F)(F)F)cc1` (stereo not drawn), the AC50 is 35.5 µM [falling, single point] under setting [1] and 35.5 µM [falling, single point] under setting [2].
For `Cn1c(/C(C#N)=C(\O)c2ccc([N+](=O)[O-])cc2)nc2ccccc21`, the AC50 under setting [2] is 3.16 µM [rising, partial curve].
With `COCCn1c(N)c(C(=O)OCc2ccccc2)c2nc3ccccc3nc21`, the concentration at half-maximal activity (AC50) runs as follows: under setting [1], 1.41 µM [rising, partial curve, poor fit]; under setting [2], 4.47 µM [rising, single point].
In the case of `O=C(Nc1ccc(O)cc1)c1cc2ccccc2c(=O)s1`, the AC50 under setting [1] was 11.2 µM [falling, single point].
For `Cc1ccc(-n2ncc3c(=O)n(CC(=O)N4CCCCCC4)cnc32)cc1`, the AC50 reads like this: under setting [1], 2.82 µM [rising, partial curve, poor fit]; under setting [2], 12.6 µM [rising, partial curve, poor fit].
As for `O=C(Nc1cccc(Cl)c1)c1ccc(F)c(S(=O)(=O)NCc2ccc3c(c2)OCO3)c1`, the AC50 runs as follows: under setting [1], 14.1 µM [rising, single point]; under setting [2], 31.6 µM [rising, single point].
On to `CCOC(=O)CC1=NN(c2ccccc2)C(=O)C1`, for which the AC50 under setting [1] is 0.00316 µM [falling, full curve, poor fit].

For orientation: AC50 means the concentration giving half of the maximal activity seen.
